Laboratory results reported in PubChem BioAssay AID1487 (National Center for Advancing Translational Sciences (NCATS), 2009).
Some of the results follow. Shown are side measurements of this screen, not its main read-out; they come without a call. Compounds called inactive in the main read-out are mostly missing here. Words in brackets tell the shape of the fitted curve; partial curves, single points and poor fits give uncertain potencies.

Test: qHTS Assay for Modulators of Lamin A Splicing
Conditions: HeLa LMNA splicing GFP/RFP minigene ratio, 48 h
Method in brief: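 S3 HeLa cells stably expressing lamin A-EGFP splicing minigene plus DsRed2, 600 cells/well, 48 h compound exposure at 37C. Laser-scanning cytometry; analysed as GFP (500-530 nm)/RFP (575-640 nm) total intensity ratio; 0.5% DMSO vehicle.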

[1] = measured here: GFP splicing reporter channel
[2] = measured here: RFP viability control channel

Structure (SMILES) | AC50 [1] | AC50 [2]
S=C(Nc1ccc2nsnc2c1)N1CCCCCC1 | 3.55 µM [falling, single point] | 
CC(C)OC(=O)Nc1ccc2c(c1)N(C(=O)CCN1CCOCC1)c1ccccc1CC2 | 0.0282 µM [falling, full curve, poor fit] | 6.31 µM [falling, partial curve, poor fit]
O=C(Nc1nnc(C(F)(F)F)s1)c1ccc(Br)s1 | 35.5 µM [rising, single point] | 12.6 µM [rising, partial curve]
CCc1nnc(NC(=O)[C@@H](NC(=O)c2ccc(C(C)(C)C)cc2)C(C)C)s1 | 2.82 µM [rising, partial curve] | 14.1 µM [rising, partial curve]
COc1cc(/C=C/c2ccc3c(Br)cc(Br)c(O)c3n2)ccc1O | 3.16 µM [rising, partial curve, poor fit] | 5.62 µM [rising, partial curve, poor fit]
Cn1c(N2CCN(c3ccccn3)CC2)nc2c1c(=O)n(Cc1ccc(Cl)cc1)c(=O)n2C |  | 15.8 µM [rising, partial curve]
Cc1ccc(CN2C(=O)c3ccccc3NC23CCN(Cc2ccccc2)CC3)cc1 |  | 35.5 µM [rising, single point]
Cc1ccc2cc3c(N)c(C(=O)N4CC(=O)Nc5ccccc54)sc3nc2c1 | 1.12 µM [falling, full curve] | 1.12 µM [falling, full curve]
C=CCc1cccc(C=Nc2cccn3cc(-c4ccccc4)nc23)c1O | 0.0794 µM [rising, full curve, poor fit] | 
COc1ccc(OC)c(NC(=O)c2c(NCc3sccc3C)sc3c2CCCCC3)c1 |  | 35.5 µM [rising, single point]
O=C1NCCCc2c1oc1ccc(O)cc21 | 4.47 µM [falling, single point] | 5.62 µM [falling, partial curve, poor fit]
O=C(c1ccccc1)N1CCN2C(=O)c3ccccc3C12c1ccc(Cl)cc1 (centres undefined) | 11.2 µM [falling, single point] | 8.91 µM [falling, partial curve]
CCc1ccccc1NC(=O)/C(=C/c1ccccc1)c1ccccc1 | 12.6 µM [rising, single point] | 31.6 µM [rising, single point]
OCCNCC12CC3CC(CC(C3)C1)C2 | 35.5 µM [rising, partial curve, poor fit] | 
COc1ccc(N2CCN(c3oc(COc4ccc(Cl)cc4Cl)nc3C#N)CC2)cc1 |  | 11.2 µM [rising, single point]
COc1cccc(C(=O)Nc2ccc(N3CCN(Cc4ccccc4)CC3)cc2)c1 | 11.2 µM [rising, single point] | 12.6 µM [rising, single point]
COc1cc(/C=N/Nc2ccc(F)cc2F)cc(OC)c1O | 20 µM [rising, partial curve, poor fit] | 
C=CCn1c(CSc2nc3ccccc3s2)n[nH]c1=S |  | 22.4 µM [falling, partial curve, poor fit]
O=C(NCCc1ccccc1)c1ccc(Cn2c(SCc3cccc(F)c3)nc3cccnc32)cc1 | 35.5 µM [falling, partial curve, poor fit] | 39.8 µM [falling, partial curve, poor fit]
CC(C)C(c1nnnn1Cc1ccco1)N1CCN(c2nc3ccccc3s2)CC1 (centres undefined) |  | 11.2 µM [rising, partial curve]
CCn1c(NCc2ccc(OC)cc2)nc2ccccc21 |  | 2.51 µM [falling, partial curve, poor fit]
CCOC(=O)C1=C(Nc2ccc(Cl)cc2)OCC1=O | 3.16 µM [rising, partial curve, poor fit] | 
Cc1ccc2cc(C#N)c(NCCNC(=S)NCCCN3CCOCC3)nc2c1 | 10 µM [falling, partial curve, poor fit] | 12.6 µM [falling, partial curve]
O=C(Cn1c(=O)oc2cc(Cl)ccc21)Nc1cccc(C(F)(F)F)c1 | 0.00794 µM [rising, full curve, poor fit] | 
Cc1ccc(-c2cc(C(F)F)n3ncc(C(=O)Nc4cn(C)nc4C)c3n2)cc1 | 0.708 µM [falling, full curve] | 2.82 µM [falling, partial curve, poor fit]
Cc1ccc(-c2nc3cnccn3c2Nc2c(C)cccc2C)o1 | 25.1 µM [falling, single point] | 35.5 µM [falling, single point]

Structure (SMILES) | AC50 [1] | AC50 [2]
CCCSCCCNC(=O)C1CCCN(c2nn3cc(-c4ccc(OC)cc4)nc3s2)C1 (centres undefined) | 10 µM [falling, partial curve] | 11.2 µM [falling, partial curve]
Cc1c(Cc2ccccc2)sc(NC(=O)/C=C/c2cccc3ccccc23)c1C(N)=O |  | 3.98 µM [rising, full curve, poor fit]
Cn1nc(N)c2c(-c3ccccc3)c(C#N)c(N)nc21 | 15.8 µM [rising, single point] | 22.4 µM [rising, single point]
COc1ccc(S(=O)(=O)N(C)CC(=O)Nc2cccc(C(C)=O)c2)cc1C | 10 µM [rising, partial curve, poor fit] | 11.2 µM [rising, single point]
O=C(CCCSc1nc2ccccc2[nH]1)NC1=NCCS1 | 22.4 µM [rising, partial curve, poor fit] | 20 µM [rising, partial curve, poor fit]
CCOC(=O)c1c(C)[nH]c(C(=O)COC(=O)COc2ccccc2C=O)c1C | 3.98 µM [falling, full curve, poor fit] | 
CCn1c2ccccc2c2cc(NC(=O)N3CCOCC3)ccc21 |  | 35.5 µM [rising, single point]
O=C(Nc1cccnc1)c1ccco1 |  | 12.6 µM [rising, partial curve]
C#CC(=O)N(c1cccc(OC)c1)C(C(=O)NC1CCCC1)c1cccs1 (centres undefined) | 35.5 µM [falling, single point] | 35.5 µM [falling, single point]
COC(=O)[C@H](Cc1ccccc1)NC(=O)O[C@@H]1C(=O)c2cc(OC)ccc2O[C@H]1c1ccc(OC)c(Br)c1 | 10 µM [rising, single point] | 10 µM [rising, single point]
CCN(CC)CCCNC(=O)CSc1nc(C)cc(C)n1 | 0.0501 µM [falling, full curve] | 0.0631 µM [falling, full curve, poor fit]
c1cc2c(cc1C1CCCCC1)c1c3n2CCCNC3CCC1 (centres undefined) | 25.1 µM [falling, single point] | 25.1 µM [falling, single point]
O=C(Nc1ccc(F)cc1)c1ccccc1Oc1ccc(C(F)(F)F)cc1[N+](=O)[O-] |  | 1.12 µM [rising, partial curve]
CCOc1ccc(Cl)cc1S(=O)(=O)N1CCN(c2ccc(F)cc2)CC1 | 15.8 µM [rising, single point] | 17.8 µM [rising, single point]
Fc1ccc(NC(=S)N2CCN(c3cccc(C(F)(F)F)c3)CC2)cc1 |  | 35.5 µM [rising, single point]
COCCNC(=O)NC(=O)COC(=O)c1cc([N+](=O)[O-])ccc1Sc1nc(C)cs1 | 3.55 µM [falling, single point] | 
CCOc1ccc(NCc2nc3ccccc3n2CCOc2ccccc2)cc1 | 10 µM [rising, partial curve, poor fit] | 14.1 µM [rising, partial curve]
Cc1cccc(OCCCCc2c(C)n[nH]c2C)c1 |  | 12.6 µM [rising, partial curve]
O=C(Nc1ccccc1OC(=O)c1ccc(Cl)cc1)c1ccc(Cl)cc1 |  | 22.4 µM [rising, partial curve, poor fit]
COc1cccc(C(=O)NCC2CCN(c3ccc(S(=O)(=O)N4CCOCC4)cc3)CC2)c1 |  | 12.6 µM [rising, partial curve]
O=C(NCc1cc(C(F)(F)F)cc(C(F)(F)F)c1)C1CC(c2ccccc2[N+](=O)[O-])=NO1 (centres undefined) | 31.6 µM [rising, single point] | 35.5 µM [rising, single point]
CC(OC(=O)c1cc2sccc2n1C)C(=O)NCc1ccc2c(c1)OCO2 (centres undefined) | 0.1 µM [rising, full curve, poor fit] | 0.708 µM [rising, full curve, poor fit]
CCCn1c2ccccc2c2cnn(CC(=O)N(C)c3ccccc3CC)c(=O)c21 | 0.0631 µM [falling, full curve] | 0.1 µM [falling, full curve]
O=C(NCCC1=CCCCC1)c1ccc2c(c1)N(Cc1ccccc1)C(=O)CS2 | 20 µM [rising, single point] | 31.6 µM [rising, single point]
COc1ccc(CC(=O)n2nc(-c3ccc(Cl)cc3)nc2NCc2ccco2)cc1 | 14.1 µM [falling, single point] | 31.6 µM [falling, single point]

Part of the list above in order of formula weight, largest number first.
Structure (SMILES) | AC50 [1] | AC50 [2]
O=C(NCc1cc(C(F)(F)F)cc(C(F)(F)F)c1)C1CC(c2ccccc2[N+](=O)[O-])=NO1 (centres undefined) | 31.6 µM [rising, single point] | 35.5 µM [rising, single point]
CCOc1ccc(Cl)cc1S(=O)(=O)N1CCN(c2ccc(F)cc2)CC1 | 15.8 µM [rising, single point] | 17.8 µM [rising, single point]
CCOC(=O)c1c(C)[nH]c(C(=O)COC(=O)COc2ccccc2C=O)c1C | 3.98 µM [falling, full curve, poor fit] | 
